The assay has as its target clusterin–RFP–GFP (UniProt P10909). Nature of the assay: co-IP; recombinant clusterin with recombinant substrates, with or without heat stress; which sepharose (GFP-nanobody or ALFA tag-nanobody) is not told; both purified.

The chains behind the UniProt entries cited, without tags or fusion partners.
UniProt Q16401: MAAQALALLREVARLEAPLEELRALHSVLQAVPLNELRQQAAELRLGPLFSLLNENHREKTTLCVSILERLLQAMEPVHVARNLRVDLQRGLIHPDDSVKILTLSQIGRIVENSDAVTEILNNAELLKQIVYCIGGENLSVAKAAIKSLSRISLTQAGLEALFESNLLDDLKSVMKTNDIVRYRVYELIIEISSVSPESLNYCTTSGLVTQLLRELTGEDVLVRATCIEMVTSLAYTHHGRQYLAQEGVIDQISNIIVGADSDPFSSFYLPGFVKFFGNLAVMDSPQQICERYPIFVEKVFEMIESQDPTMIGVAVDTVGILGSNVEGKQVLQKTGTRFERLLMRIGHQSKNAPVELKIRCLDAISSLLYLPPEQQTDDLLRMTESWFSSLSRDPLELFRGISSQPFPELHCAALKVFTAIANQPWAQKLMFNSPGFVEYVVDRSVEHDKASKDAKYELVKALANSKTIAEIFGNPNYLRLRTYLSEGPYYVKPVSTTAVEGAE

Results are given in words; binding and its absence hold for the method and conditions named. Some entries that bind do so weakly or less than the wild type. Tags and fused reporters may be left off the sequences shown.

For 3 molecules, binding results are on record in PMC10050189, “Alpha 2-macroglobulin acts as a clearance factor in the lysosomal degradation of extracellular misfolded proteins” (Scientific Reports, 2023).

Regarding “His–ALFA–3C–PSMD5 (from UniProt Q16401 1-504)”, the binding entry is “binds”.

B1: His–ALFA–3C–ESD (natural protein, human, UniProt P10768 1-282, looked up)
chain: MALKQISSNKCFGGLQKVFEHDSVELNCKMKFAVYLPPKAETGKCPALYWLSGLTCTEQNFISKSGYHQSASEHGLVVIAPDTSPRGCNIKGEDESWDFGTGAGFYVDATEDPWKTNYRMYSYVTEELPQLINANFPVDPQRMSIFGHSMGGHGALICALKNPGKYKSVSAFAPICNPVLCPWGKKAFSGYLGTDQSKWKAYDATHLVKSYPGSQLDILIDQGKDDQFLLDGQLLPDNFIAACTEKKIPVVFRLQEGYDHSYYFIATFITDHIRHHAKYLNA
notes: S-formylglutathione hydrolase (ESD), cDNA amplified from HEK293 total cDNA; A 3C protease site stands between the tags and the protein; Heat-stressed at 50 °C for 1 h together with the chaperone; also called recombinant ESD; source: E. coli BL21(DE3) LOBSTR, purified (HisPur Cobalt Resin)
In the case of B1, the binding entry is “binds”.

B2: His–ALFA–3C–ALDH1A1 (natural protein, human, UniProt P00352 1-501, looked up)
chain: MSSSGTPDLPVLLTDLKIQYTKIFINNEWHDSVSGKKFPVFNPATEEELCQVEEGDKEDVDKAVKAARQAFQIGSPWRTMDASERGRLLYKLADLIERDRLLLATMESMNGGKLYSNAYLNDLAGCIKTLRYCAGWADKIQGRTIPIDGNFFTYTRHEPIGVCGQIIPWNFPLVMLIWKIGPALSCGNTVVVKPAEQTPLTALHVASLIKEAGFPPGVVNIVPGYGPTAGAAISSHMDIDKVAFTGSTEVGKLIKEAAGKSNLKRVTLELGGKSPCIVLADADLDNAVEFAHHGVFYHQGQCCIAASRIFVEESIYDEFVRRSVERAKKYILGNPLTPGVTQGPQIDKEQYDKILDLIESGKKEGAKLECGGGPWGNKGYFVQPTVFSNVTDEMRIAKEEIFGPVQQIMKFKSLDDVIKRANNTFYGLSAGVFTKDIDKAITISSALQAGTVWVNCYGVVSAQCPFGGFKMSGNGRELGEYGFHEYTEVKTVTVKISQKNS
notes: retinal dehydrogenase 1 (ALDH1A1), cDNA amplified from HEK293 total cDNA; A 3C protease site stands between the tags and the protein; Heat-stressed at 50 °C for 1 h together with the chaperone; also called recombinant ALDH1A1; source: E. coli BL21(DE3) LOBSTR, purified (HisPur Cobalt Resin)
Take B2: the binding result was “binds”.
